{
  "source": "patent US20240254107A1",
  "about": "“RNA-TARGETING LIGANDS, COMPOSITIONS THEREOF, AND METHODS OF MAKING AND USING THE SAME” (THE UNIVERSITY OF NORTH CAROLINA AT CHAPEL HILL, priority 2021, published 2024)",
  "assay": "Comparison of fragment-linker-fragment ligands: ligand efficiency (LE) and linking coefficient (E)",
  "conditions": "FIG. 5 legend",
  "data": [
    {"compound": "c1ccc(N2CCNCC2)c(NCc2ccc3nccnc3c2)c1", "note": "[Compound 37]", "values": [
      {"measurement": "E value (linking coefficient)", "value": 2.5}
    ]}
  ]
}
